Laboratory results from publication PMC5785343.
For at least one entry, the source does not settle the construct or the ends of the probe. For some of these results: No signal at the amounts used counts as a negative.

How the values were obtained:
GST-MabHLH6-C [1] = test: EMSA; settings: LightShift Chemiluminescent EMSA kit (Thermo) per manufacturer; pH and temperature not stated; native PAGE; recombinant protein; protein details: GST (N-terminal, pGEX-4T-1); label: biotin 5' (text, 3' end labeling kit named)
GST-MabHLH6-C [2] = test: competition with a labelled probe; settings: EMSA, LightShift Chemiluminescent EMSA kit (Thermo) per manufacturer, pH and temperature not stated, native PAGE, recombinant protein, protein details: GST (N-terminal, pGEX-4T-1)

Row | Sequence | binding result (GST-MabHLH6-C [1]) | other results
1 | GACCAATGTAAACGCTGTATGGCGAGTGCCACGTGGATTTTTTAAATTAACCAATAAAA (double strand) [MaBAM8 probe] | binds | –
2 | ATCGTCCGACAAGTTTGAGGTACGACTGCCATTACTGCAGCCTCACTTGTAGCCTTCC (double strand) [MaAMY3C mprobe] | – | binding result (GST-MabHLH6-C [2]; labelled N8): no binding
3 | TACGTTGCACACGTGATTAGAACTGGTAGGGGGTCCCAATTAACCAGTACAGGTCCTA (double strand) [MaAMY3 mprobe] | – | binding result (GST-MabHLH6-C [2]; labelled N7): no binding
4 | GCAAATATCACGTGCGGGTTAAGCCCGAAATATTAGAACTCGACGACATGTGCTCCAGA (double strand) [MaLSF2 probe] | binds | –
5 | TTAGGAAAGTGATAACCTGTAGCACGTGCTTGGCACGTGGGAGGAGTGGGACCCACGGA / TCCGTGGGTCCCACTCCTCCCACGTGCCAAGCACGTGCTACATGTTATCACTTTCCTAA [MaISA3 probe] | binds | –
6 | GCCACCGGATGACAGGTGGGTGGCATTGCCGATCTTGGTTTTCACTTGTGATGGCGCTG (double strand) [MaBAM2 mprobe] | – | binding result (GST-MabHLH6-C [2]; labelled N4): no binding
7 | TTAGGAAAGTGATAACATGTAGACCGGTCTTGGACCGGTGGAGGAGTGGGACCCACGGA (double strand) [MaISA3 mprobe] | – | binding result (GST-MabHLH6-C [2]; labelled N10): no binding
8 | TCAAAATATATGGTTATATTTACTTCAACAAGTATATTGTTTGGGACAACATACTCTCT (double strand) [MaBAM10 mprobe] | – | binding result (GST-MabHLH6-C [2]; labelled N6): no binding
9 | TTGGTCACGTTATGTTGTGATATTTAACGAACACATGAGATTGAGATCACACCGACGGG (double strand) [MapGlcT2-2 probe] | binds | –
10 | TTGGTCACGTTATGTTGTGATATTTAACGAAACCAGTAGATTGAGATCACACCGACGGG (double strand) [MapGlcT2-2 mprobe] | – | binding result (GST-MabHLH6-C [2]; labelled N11): no binding
11 | GACCAATGTAAACGCTGTATGGCGAGTGCACCGGTGATTTTTTAAATTAACCAATAAAA (double strand) [MaBAM8 mprobe] | – | binding result (GST-MabHLH6-C [2]; labelled N5): no binding
12 | CGGCGCGCTATCATCCATGCACTCGTCGTTACCAACCGGTTCGCTGCCGGAGCCGTCGG (double strand) [MaBAM1 mprobe] | – | binding result (GST-MabHLH6-C [2]; labelled N3): no binding
13 | TACGTTGCCAACTGGATTAGACATGTGAGGGGGTCCCAATTACACATGACAGGTCCTA (double strand) [MaAMY3 probe] | binds | –
14 | CGGCGCGCTATCATCCATGCCATCTGCGTTACCACACGTGTCGCTGCCGGAGCCGTCGG (double strand) [MaBAM1 probe] | binds | –
15 | CGAAACGACCACCTTTCTTCGTTCACGTGATTCCCAGGTGCGTTGTCTTCCTCCTTGG (double strand) [MaISA2 probe] | binds | –
16 | GCAAATATACCGGTCGGGTTAAGCCCGAAATATTAGAACTCGACGAACTGGTCTCCAGA / TCTGGAGACCATGTCGTCGAGTTCTAATATTTCGGGCTTAACCCGACCGGTATATTTGC [MaLSF2 mprobe] | – | binding result (GST-MabHLH6-C [2]; labelled N2): no binding
17 | GCCACCGGATGCAAGTGGGGTGGCATTGCCGATCTTGGTTTTCCATTTGGATGGCGCTG (double strand) [MaBAM2 probe] | binds | –
18 | ATCGTCCGCAAATGTTGAGGTACGACTGCCATTACTGCAGCCTCCATTTGAGCCTTCC (double strand) [MaAMY3C probe] | binds | –
19 | TCAAAATATATGGTTATATTTACTTCACAAATGATATTGTTTGGGACAACATACTCTCT (double strand) [MaBAM10 probe] | binds | –
20 | CGAAACGACCACCTTTCTTCGTTATCGGTATTCCACGGGTCGTTGTCTTCCTCCTTGG / CCAAGGAGGAAGACAACGACCCGTGGAATACCGGTAACGAAGAAAGGTGGTCGTTTCG [MaISA2 mprobe] | – | binding result (GST-MabHLH6-C [2]; labelled N9): no binding
21 | TCTAATACCAGTATGGTGTGTGGCCGCCATCATTCTCTCCCAAGCAACACCGGTTAAAC (double strand) [MaGWD1 mprobe] | – | binding result (GST-MabHLH6-C [2]; labelled N1): no binding
22 | TCTAATCACATGATGGTGTGTGGCCGCCATCATTCTCTCCCAAGCAACCACGTGTAAAC (double strand) [MaGWD1 probe] | binds | –
